According to the supplement of paper PMC6411743:
± gives the standard deviation of the averaged measurements. The entries are a selection whose mix differs from that of the whole data set.

How the values were obtained:
Test in all cases: NP40-soluble protein abundance relative to vehicle (solubility fold change) (ratio); higher = more soluble protein in presence of ATP
[1] = target: T1, ALG3 (UniProt Q92685)
T1 sequence (whole entry): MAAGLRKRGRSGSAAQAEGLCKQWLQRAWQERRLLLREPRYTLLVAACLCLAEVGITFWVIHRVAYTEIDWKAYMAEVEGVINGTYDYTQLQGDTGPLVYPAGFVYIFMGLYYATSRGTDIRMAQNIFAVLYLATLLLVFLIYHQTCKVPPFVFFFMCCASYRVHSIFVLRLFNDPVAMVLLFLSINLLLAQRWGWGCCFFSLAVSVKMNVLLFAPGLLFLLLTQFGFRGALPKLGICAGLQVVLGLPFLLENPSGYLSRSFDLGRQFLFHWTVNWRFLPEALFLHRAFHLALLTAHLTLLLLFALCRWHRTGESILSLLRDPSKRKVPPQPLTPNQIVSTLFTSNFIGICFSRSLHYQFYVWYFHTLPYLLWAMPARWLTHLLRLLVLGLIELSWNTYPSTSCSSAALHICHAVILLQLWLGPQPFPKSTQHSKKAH
Procedure, shortened: (§1)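 Crude Jurkat lysate, prepared by Dounce homogenisation, was exposed to eight concentrations from 0.1 to 10 mM for 10 min at room temperature and then 3 min at 37 °C. Solubilisation used 0.8% NP40 with benzonase for 60 min at 4 °C, followed by ultracentrifugation and TMT labelling of the supernatant for LC-MS/MS. After vsn normalisation of intensities, each value is the fold change against the detergent-processed vehicle within each replicate, across three independent experiments.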

[2] = target: T2, COG1 (UniProt Q8WTW3)
T2 sequence (whole entry): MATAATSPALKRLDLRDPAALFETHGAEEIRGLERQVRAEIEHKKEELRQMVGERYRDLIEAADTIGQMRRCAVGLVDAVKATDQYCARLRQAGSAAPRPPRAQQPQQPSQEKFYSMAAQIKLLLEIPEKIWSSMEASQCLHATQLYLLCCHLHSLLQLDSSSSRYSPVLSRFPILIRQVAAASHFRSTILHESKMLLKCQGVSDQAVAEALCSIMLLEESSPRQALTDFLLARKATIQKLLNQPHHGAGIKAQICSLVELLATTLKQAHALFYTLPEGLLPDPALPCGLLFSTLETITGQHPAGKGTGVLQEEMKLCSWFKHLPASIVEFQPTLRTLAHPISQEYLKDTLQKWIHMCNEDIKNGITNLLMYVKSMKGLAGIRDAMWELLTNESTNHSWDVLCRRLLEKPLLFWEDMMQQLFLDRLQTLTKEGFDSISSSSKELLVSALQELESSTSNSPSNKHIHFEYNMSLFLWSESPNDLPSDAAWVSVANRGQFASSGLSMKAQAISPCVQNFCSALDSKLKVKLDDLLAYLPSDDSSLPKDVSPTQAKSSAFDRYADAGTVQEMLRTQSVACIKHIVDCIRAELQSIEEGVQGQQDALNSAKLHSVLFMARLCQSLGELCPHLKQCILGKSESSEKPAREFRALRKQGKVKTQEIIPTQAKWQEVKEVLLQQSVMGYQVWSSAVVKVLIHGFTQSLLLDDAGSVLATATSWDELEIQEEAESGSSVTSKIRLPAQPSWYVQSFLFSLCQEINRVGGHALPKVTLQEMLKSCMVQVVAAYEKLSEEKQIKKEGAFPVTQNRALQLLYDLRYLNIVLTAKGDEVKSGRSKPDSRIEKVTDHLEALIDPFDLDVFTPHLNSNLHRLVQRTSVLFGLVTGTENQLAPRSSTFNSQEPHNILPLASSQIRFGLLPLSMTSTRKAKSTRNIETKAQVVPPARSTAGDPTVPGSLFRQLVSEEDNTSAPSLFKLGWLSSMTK
Procedure, shortened: as §1

[3] = target: T3, FAM3C (UniProt Q92520)
T3 sequence (whole entry): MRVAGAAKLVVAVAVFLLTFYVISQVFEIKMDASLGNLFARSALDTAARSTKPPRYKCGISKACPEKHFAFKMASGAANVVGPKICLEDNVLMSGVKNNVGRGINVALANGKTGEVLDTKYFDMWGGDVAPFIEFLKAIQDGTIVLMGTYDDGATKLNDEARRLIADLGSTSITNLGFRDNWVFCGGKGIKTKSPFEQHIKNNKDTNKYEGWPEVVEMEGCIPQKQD
Procedure, shortened: as §1

[4] = target: T4, JADE3 (UniProt Q92613)
T4 sequence (whole entry): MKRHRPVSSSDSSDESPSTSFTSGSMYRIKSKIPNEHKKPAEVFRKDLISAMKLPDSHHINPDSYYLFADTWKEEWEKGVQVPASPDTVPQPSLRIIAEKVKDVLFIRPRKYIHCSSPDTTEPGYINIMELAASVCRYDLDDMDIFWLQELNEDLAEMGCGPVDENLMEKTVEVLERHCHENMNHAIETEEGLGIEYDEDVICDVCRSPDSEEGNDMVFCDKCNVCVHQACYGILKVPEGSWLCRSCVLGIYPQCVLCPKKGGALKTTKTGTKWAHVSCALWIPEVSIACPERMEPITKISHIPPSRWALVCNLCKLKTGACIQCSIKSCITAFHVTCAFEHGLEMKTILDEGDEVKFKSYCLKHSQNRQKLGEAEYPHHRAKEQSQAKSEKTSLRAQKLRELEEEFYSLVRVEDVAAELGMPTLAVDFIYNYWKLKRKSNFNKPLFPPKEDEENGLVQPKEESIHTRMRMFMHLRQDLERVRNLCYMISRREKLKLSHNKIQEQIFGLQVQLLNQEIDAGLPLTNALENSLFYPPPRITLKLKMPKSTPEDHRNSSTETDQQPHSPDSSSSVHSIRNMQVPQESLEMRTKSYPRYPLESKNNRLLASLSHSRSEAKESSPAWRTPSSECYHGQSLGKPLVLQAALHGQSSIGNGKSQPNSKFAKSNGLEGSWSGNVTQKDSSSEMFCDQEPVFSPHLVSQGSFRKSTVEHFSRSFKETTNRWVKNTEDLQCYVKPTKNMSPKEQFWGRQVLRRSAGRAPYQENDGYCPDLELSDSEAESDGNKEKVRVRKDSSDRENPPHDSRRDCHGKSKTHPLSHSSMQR
Procedure, shortened: as §1

[5] = target: T5, NSMCE1 (UniProt Q8WV22)
T5 sequence (whole entry): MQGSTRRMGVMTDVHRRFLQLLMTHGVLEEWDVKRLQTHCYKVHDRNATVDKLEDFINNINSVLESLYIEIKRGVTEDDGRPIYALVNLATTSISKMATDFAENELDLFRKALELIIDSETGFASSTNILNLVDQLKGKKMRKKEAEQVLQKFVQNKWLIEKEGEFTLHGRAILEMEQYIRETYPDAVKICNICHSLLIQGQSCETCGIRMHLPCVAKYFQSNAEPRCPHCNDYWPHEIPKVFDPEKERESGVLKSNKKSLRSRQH
Procedure, shortened: as §1

[6] = target: T6, NT5C3B (UniProt Q969T7)
T6 sequence (whole entry): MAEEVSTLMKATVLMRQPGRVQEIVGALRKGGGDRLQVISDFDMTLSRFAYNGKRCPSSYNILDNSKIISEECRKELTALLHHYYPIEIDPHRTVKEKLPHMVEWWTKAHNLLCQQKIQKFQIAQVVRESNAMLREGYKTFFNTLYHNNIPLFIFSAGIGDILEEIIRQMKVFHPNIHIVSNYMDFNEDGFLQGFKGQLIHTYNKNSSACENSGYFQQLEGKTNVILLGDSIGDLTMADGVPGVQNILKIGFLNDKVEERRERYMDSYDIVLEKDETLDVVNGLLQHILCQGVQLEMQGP
Procedure, shortened: as §1

Compound `Nc1ncnc2c1ncn2[C@@H]1O[C@H](COP(=O)(O)OP(=O)(O)OP(=O)(O)O)[C@@H](O)[C@H]1O` [adenosine triphosphate] has an NP40-soluble protein abundance ([1]; concentration: 1mM) of 1.23 ± 0.24, an NP40-soluble protein abundance ([1]; concentration: 2mM) of 1 ± 0.12 and an NP40-soluble protein abundance ([1]; concentration: 4mM) of 0.965 ± 0.061. The NP40-soluble protein abundance ([1]; concentration: 6mM) was 0.902 ± 0.12, the NP40-soluble protein abundance ([1]; concentration: 8mM) was 0.865 ± 0.04 and the NP40-soluble protein abundance ([1]; concentration: 10mM) was 0.932 ± 0.019. It also gave an NP40-soluble protein abundance ([2]; concentration: 1mM) of 0.973 ± 0.05, an NP40-soluble protein abundance ([2]; concentration: 2mM) of 0.9604 ± 0.0027 and an NP40-soluble protein abundance ([2]; concentration: 4mM) of 0.952 ± 0.062. For the same compound, the NP40-soluble protein abundance ([2]; concentration: 6mM) was 0.897 ± 0.07, the NP40-soluble protein abundance ([2]; concentration: 8mM) was 0.906 ± 0.055 and the NP40-soluble protein abundance ([2]; concentration: 10mM) was 0.93 ± 0.043. It also gave an NP40-soluble protein abundance ([3]; concentration: 1mM) of 0.918 ± 0.068, an NP40-soluble protein abundance ([3]; concentration: 2mM) of 0.972 ± 0.011 and an NP40-soluble protein abundance ([3]; concentration: 4mM) of 0.947 ± 0.02. It also gave an NP40-soluble protein abundance ([3]; concentration: 6mM) of 0.974 ± 0.011, an NP40-soluble protein abundance ([3]; concentration: 8mM) of 0.922 ± 0.044 and an NP40-soluble protein abundance ([3]; concentration: 10mM) of 0.903 ± 0.041. For the same compound, the NP40-soluble protein abundance ([4]; concentration: 1mM) was 1.17 ± 0.032, the NP40-soluble protein abundance ([4]; concentration: 2mM) was 1.19 ± 0.076 and the NP40-soluble protein abundance ([4]; concentration: 4mM) was 1.26 ± 0.055. For the same compound, the NP40-soluble protein abundance ([4]; concentration: 6mM) was 1.27 ± 0.04, the NP40-soluble protein abundance ([4]; concentration: 8mM) was 1.29 ± 0.086 and the NP40-soluble protein abundance ([4]; concentration: 10mM) was 1.28 ± 0.032. The NP40-soluble protein abundance ([5]; concentration: 1mM) was 1.02 ± 0.037, the NP40-soluble protein abundance ([5]; concentration: 2mM) was 1.04 ± 0.025 and the NP40-soluble protein abundance ([5]; concentration: 4mM) was 1.03 ± 0.04. It also gave an NP40-soluble protein abundance ([5]; concentration: 6mM) of 1.05 ± 0.032, an NP40-soluble protein abundance ([5]; concentration: 8mM) of 1.02 ± 0.061 and an NP40-soluble protein abundance ([5]; concentration: 10mM) of 0.984 ± 0.03. It also gave an NP40-soluble protein abundance ([6]; concentration: 1mM) of 0.952 ± 0.013, an NP40-soluble protein abundance ([6]; concentration: 2mM) of 0.959 ± 0.015 and an NP40-soluble protein abundance ([6]; concentration: 4mM) of 0.97 ± 0.028.
